The other results are listed elsewhere or left out.

This passage reports binding signal results from PMC7819943, “Rice protein-binding microarrays: a tool to detect cis-acting elements near promoter regions in rice”.

The target in this experiment is T1, OsSMF1 (Oryza sativa, UniProt Q6ZLB0 1-436).
T1 sequence: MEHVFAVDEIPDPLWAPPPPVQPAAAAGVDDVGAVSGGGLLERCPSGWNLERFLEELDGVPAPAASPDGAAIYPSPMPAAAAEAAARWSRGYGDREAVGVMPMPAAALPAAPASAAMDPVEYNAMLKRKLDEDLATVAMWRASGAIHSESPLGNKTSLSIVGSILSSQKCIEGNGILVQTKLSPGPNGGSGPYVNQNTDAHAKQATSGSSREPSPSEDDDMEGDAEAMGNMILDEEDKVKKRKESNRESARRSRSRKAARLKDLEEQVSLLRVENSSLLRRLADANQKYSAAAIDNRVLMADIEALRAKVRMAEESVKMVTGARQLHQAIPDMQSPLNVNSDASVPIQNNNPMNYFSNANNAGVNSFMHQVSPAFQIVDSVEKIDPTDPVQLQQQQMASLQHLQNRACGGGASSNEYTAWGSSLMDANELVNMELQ
The experiment is described as follows: protein-binding microarray (RPBM); PBS, 2% BSA, 51.3 ng/ul salmon testes DNA, 50 uM zinc acetate, 200 nM TF, 25 C, 1 h; high values mean tight binding. To be noted: protein: recombinant; tags: N-terminal polyhistidine and DsRed monomer fusion (pET32a); chain copies: 2; label: CyDye5-dUTP incorporated in the synthesized complementary strand; 3' TTTTT single-stranded linker to array surface; dsDNA, one strand shown. An outline of the steps: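 Transcription factors were each fused at the N-terminus to a polyhistidine tag plus DsRed and expressed in E. coli BL21-CodonPlus before Ni–NTA purification. Binding to a double-stranded custom Agilent array was carried out with 200 nM protein at 25 °C for 1 h in PBS, 2% BSA, salmon testes DNA and 50 µM zinc acetate. The binding signal is per-feature fluorescence intensity, in arbitrary units, on an Axon 4000B scanner.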
“CACACCCTTACTGTAGCTATCACTGCACAAAGCCAAAACCCGGAGTCACCTAGTGCAG”: the binding signal was 43600 fluorescence intensity (a.u.).

Consider “AAGGGTACACTTTATTTTGTTGGGACAAACTTTGACCAATCGGAGTCACCTAGTGCAG”, for which the binding signal was 8920 fluorescence intensity (a.u.).

With “GGTTCTCTCCACACCAGCACAGCAGCGAGTACAGCCAGGCCGGAGTCACCTAGTGCAG”, the binding signal is 3640 fluorescence intensity (a.u.).

On to “CGGCGATCCGTACGTCGCCGGCGGCGATCGATTTGTATATCGGAGTCACCTAGTGCAG”, for which the binding signal is 3160 fluorescence intensity (a.u.).

As for “TGAATCTAAACATATATCATTAACATCAATATGAATATATCGGAGTCACCTAGTGCAG”, the binding signal is 3250 fluorescence intensity (a.u.).

For “ATCAGAGGATCGGCACTAAGCCATGCAAGGCAAGTGCCACCGGAGTCACCTAGTGCAG”, the binding signal was 3330 fluorescence intensity (a.u.).

Turning to “CATCGACACCCTACAGCGTACACGTACTTGTGCTGCTCGTCGGAGTCACCTAGTGCAG”, the binding signal was 4420 fluorescence intensity (a.u.).

Take “GATGATGAACAATTGTCTGAATCCGATGCTCGATTGCCATCGGAGTCACCTAGTGCAG”: the binding signal was 3590 fluorescence intensity (a.u.).

Turning to “CTCTTCTTCTTCCTCACCAAAGTTGTTGAGTTGGTGTCCTCGGAGTCACCTAGTGCAG”, the binding signal was 3160 fluorescence intensity (a.u.).

With “ATCCGTCTTTTGCATTTGTTGTGTTCGATCTTATAACTGCCGGAGTCACCTAGTGCAG”, the binding signal is 3600 fluorescence intensity (a.u.).

Turning to “CATGTTGTACGTACTCGGTTCTCACGTCATCATGATAGGGCGGAGTCACCTAGTGCAG”, the binding signal was 11400 fluorescence intensity (a.u.).

For “TGGTCAGTTGAGGGAGTCAAAGTGATCTTCCATTACGGTTCGGAGTCACCTAGTGCAG”, the binding signal was 3340 fluorescence intensity (a.u.).

For “TTGTTTCACCGCTTACGCCACGTGCGCCGCTCAGCTGTATCGGAGTCACCTAGTGCAG”, the binding signal was 9840 fluorescence intensity (a.u.).

As for “TTCACCTACTGCGTGAGAGATGGATGACTAGTCATGTTTGCGGAGTCACCTAGTGCAG”, the binding signal is 5610 fluorescence intensity (a.u.).

In the case of “TCCTGGGTCTATGTATTGGAGCTGTCAGTGTGTAGGTGGACGGAGTCACCTAGTGCAG”, the binding signal was 3470 fluorescence intensity (a.u.).

For “CCGTACACACACACGACGCAGCCGTAGACATGCAACCGAACGGAGTCACCTAGTGCAG”, the binding signal was 3540 fluorescence intensity (a.u.).

Regarding “TTCTTCTTTTCTTCTTGCTCATACAGTTCTTGAAACATAACGGAGTCACCTAGTGCAG”, the binding signal is 5190 fluorescence intensity (a.u.).

“ATAGGTGGTTGATTTATTTTGCGTAGGAGAGAGTACGTTGCGGAGTCACCTAGTGCAG”: the binding signal was 3360 fluorescence intensity (a.u.).

On to “GATCGACACAGTAGTGGTACAGTGTGCGTGTGCGTGTGTGCGGAGTCACCTAGTGCAG”, for which the binding signal was 3950 fluorescence intensity (a.u.).

For “TATATCTTCATAAAACCAACTCAAACACGGATGACGTACCCGGAGTCACCTAGTGCAG”, the binding signal is 4730 fluorescence intensity (a.u.).

As for “CAATTCCCAGGGATCTCCCCGGTTGATGTCACTGTCGGTCCGGAGTCACCTAGTGCAG”, the binding signal is 4540 fluorescence intensity (a.u.).

“CCATTGTGGATTTTGTGGCTGGAAAACTATGTGGCTTCTTCGGAGTCACCTAGTGCAG”: the binding signal was 3360 fluorescence intensity (a.u.).

Take “CCTACAAACATTACTAAGCCGTCACGTGGCGCTCTAATAACGGAGTCACCTAGTGCAG”: the binding signal is 4340 fluorescence intensity (a.u.).

Regarding “AGTCAAGCGGTTTGGTTCATTGGGATACCCAGGTTGTACGCGGAGTCACCTAGTGCAG”, the binding signal is 14200 fluorescence intensity (a.u.).

For the sequence “CTTGAACTGAACAAATCCATGGCGAAGTAGCTAGTGCTGACGGAGTCACCTAGTGCAG”, the binding signal was 5210 fluorescence intensity (a.u.).

In the case of “CAAAGCGGCCCAACAATGAACACGTCACTTGTATTCACTACGGAGTCACCTAGTGCAG”, the binding signal was 7510 fluorescence intensity (a.u.).

As for “TTGGCTGGACACATGACGCATGCGAACCAGGTTATGGACGCGGAGTCACCTAGTGCAG”, the binding signal is 3780 fluorescence intensity (a.u.).

In the case of “CCATGCCACGCTGTCCGTACCCCTGCCTGCGTGCGCACCGCGGAGTCACCTAGTGCAG”, the binding signal was 7880 fluorescence intensity (a.u.).

Consider “CTATACACAAAAGCTGATGTCATCACGCCTAACTCCTCTCCGGAGTCACCTAGTGCAG”, for which the binding signal was 14800 fluorescence intensity (a.u.).

Turning to “CGTTCGATTCGATTCGATTTCCGCCCAAAATTTCCCAAATCGGAGTCACCTAGTGCAG”, the binding signal is 4480 fluorescence intensity (a.u.).

Consider “CTAGCTGCCAGGCTTTGGATTCTGAGCGCCACGTCAGGAACGGAGTCACCTAGTGCAG”, for which the binding signal was 15100 fluorescence intensity (a.u.).

As to “TCTTCGAAGATGCTCATAGGGGTAGGGTTTGCGTGCGTGTCGGAGTCACCTAGTGCAG”, the binding signal was 3190 fluorescence intensity (a.u.).

Turning to “CAAGGCCGATGCAACACTGACGTGGCCATCAATTTGATCCCGGAGTCACCTAGTGCAG”, the binding signal was 10800 fluorescence intensity (a.u.).

Consider “GGTATTTGTCTTTCACCTTGAGTCAGCCCCAATTTCCAATCGGAGTCACCTAGTGCAG”, for which the binding signal is 6730 fluorescence intensity (a.u.).

For the sequence “CCATCTCAACCCATTTGCACCCACGTCGCCGTGCATCCGCCGGAGTCACCTAGTGCAG”, the binding signal was 3700 fluorescence intensity (a.u.).

For “TCTCTCTTCACGGGAGGGCAGTGTGGTTTTGGTCGGATTCCGGAGTCACCTAGTGCAG”, the binding signal was 3530 fluorescence intensity (a.u.).

For “GTGCCTGAACTAGCATAATCACTGTGTCACCATCTTTCCTCGGAGTCACCTAGTGCAG”, the binding signal is 5850 fluorescence intensity (a.u.).

As for “CCTGATGACAATGTAACCACATCACATCTATTTGTAACATCGGAGTCACCTAGTGCAG”, the binding signal was 3950 fluorescence intensity (a.u.).

For “TTTGCGGTGAAGGGTGAGTGTAGAAGTAGGGACTGTTGATCGGAGTCACCTAGTGCAG”, the binding signal is 5090 fluorescence intensity (a.u.).

As for “TACATGTCTTATCCCTCTGACTTGGAAGACCATGAGCACACGGAGTCACCTAGTGCAG”, the binding signal is 3380 fluorescence intensity (a.u.).

Turning to “AAAACCGGCAAACTTTTATAGTGTGGCAATGTTTGGCAAGCGGAGTCACCTAGTGCAG”, the binding signal was 3180 fluorescence intensity (a.u.).

Regarding “TAGATCAATGATGTTGCATGCAACTCACGCGACACATGGTCGGAGTCACCTAGTGCAG”, the binding signal was 40000 fluorescence intensity (a.u.).
